Here are results for 11 compounds from the supplement of paper PMC10727501.

Conditions in all cases: 10 µM; pre-incubation: 30-90 min
The subject of assay [1] is Danio rerio larvae (5 dpf, TLF). As to the kind of experiment: OMR-Perf (SSMD vs DMSO vehicle); higher = higher than vehicle (e.g. higher dark-flash O-bend response probability, or better optomotor performance).
Assay [2] shares this test system. As to the kind of experiment: Prob-Test (SSMD vs DMSO vehicle); higher = higher than vehicle (e.g. higher dark-flash O-bend response probability, or better optomotor performance).
For assay [3] the test system is unchanged. The assay can be described thus: Prob-Naive (SSMD vs DMSO vehicle); higher = higher than vehicle (e.g. higher dark-flash O-bend response probability, or better optomotor performance).
Assay [4] has the same test system. The assay can be described thus: Prob-Train (SSMD vs DMSO vehicle); higher = higher than vehicle (e.g. higher dark-flash O-bend response probability, or better optomotor performance).

The other results are listed elsewhere or left out. This data set is noisy: repeats of one test often differ as much as different tests do.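 Researchers measured free-swimming zebrafish larvae's O-bend response probability to dark flashes (naive: first five; training: remaining flashes of four 60-flash blocks; test: later 60-flash block) and OMR turning toward alternating leftward/rightward LED motion. Six treated larvae were compared to sixty 0.1% DMSO controls, with |SSMD|≥2 marking a hit.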

In assay [1], `O=S(=O)(F)Cc1ccccc1` gave an OMR-Perf of -0.371. Besides, the Prob-Test in assay [2] worked out at 1.15. In assay [3], this compound came in with a Prob-Naive of -0.761. The compound further gave a Prob-Train in assay [4] of -0.451.
With `COc1cc(OC)c(OC)cc1C=O` [Asaraldehyde], in assay [1], the OMR-Perf turned out to be 0.0142. Also, the Prob-Test in assay [2] worked out at 0.802. Further, the Prob-Naive in assay [3] came to 0.13. The compound further returned a Prob-Train in assay [4] of 0.0521.
In turn, `C[C@](O)(COc1ccc(C#N)cc1)C(=O)Nc1ccc(C#N)c(C(F)(F)F)c1` came in with an OMR-Perf in assay [1] of -0.785. Moreover, in assay [2], the Prob-Test is -1.25. Further, the Prob-Naive in assay [3] was -0.595. The compound also registered a Prob-Train in assay [4] of -1.12.
On the same counts, the results for `C=C[C@H]1CN2CCC1C[C@H]2[C@H](O)c1ccnc2ccccc12` (some centres undefined) [Cinchonidine] are -0.278, 0.11, 0.285 and 0.514.
`CCN(C)C(=O)Oc1cccc([C@H](C)N(C)C)c1.O=C(O)[C@H](O)[C@@H](O)C(=O)O` [Rivastigmine Tartrate] came in with an OMR-Perf in assay [1] of 0.488. Further, the Prob-Test in assay [2] was -0.0749. In addition, the Prob-Naive in assay [3] is -0.226. The compound also registered a Prob-Train in assay [4] of 0.091.
For `CN1[C@@H]2CC[C@H]1CC(OC(=O)C1C=Nc3ccccc31)C2.Cl` (some centres undefined) [Tropisetron] the same measures were 0.431, 0.665, 0.357 and 0.654.
For `CCCC[N+]1(C)[C@@H]2C[C@@H](OC(=O)[C@@H](CO)c3ccccc3)C[C@H]1[C@@H]1O[C@@H]12.[Br-]` (some centres undefined) [Butylscopolamine Bromide] the same measures were -0.491, -0.269, 0.208 and 0.109.
For `COc1ccc(C(=O)N2CCCC2=O)cc1` [Aniracetam] the same measures were 0.069, -0.462, 0.614 and 0.179.
Regarding `Cl.Cn1c(CCCC(=O)O)nc2cc(N(CCCl)CCCl)ccc21` [Bendamustine HCl], in assay [1], the OMR-Perf turned out to be 0.209. The same compound had a Prob-Test in assay [2] of -0.349. The compound also had a Prob-Naive in assay [3] of -0.459. In assay [4], this compound registered a Prob-Train of -0.323.
For `CC(C)c1c(CN(C)C(C)Cc2ccccc2)n(C)n(-c2ccccc2)c1=O` (centres undefined) [Famprofazone] the same measures were -1.04, -1.13, -0.706 and -0.791.
Take `CCCN1CCO[C@@H]2c3cc(O)ccc3OC[C@@H]21`: the OMR-Perf in assay [1] was -0.855. This compound also gave a Prob-Test in assay [2] of -0.422. In assay [3], this compound returned a Prob-Naive of 0.028. Further, the Prob-Train in assay [4] is -0.735.
